{"sequences": {"note": "Protein sequences, listed by entry. Tags and fused reporters are not part of them.", "UniProt P35222": "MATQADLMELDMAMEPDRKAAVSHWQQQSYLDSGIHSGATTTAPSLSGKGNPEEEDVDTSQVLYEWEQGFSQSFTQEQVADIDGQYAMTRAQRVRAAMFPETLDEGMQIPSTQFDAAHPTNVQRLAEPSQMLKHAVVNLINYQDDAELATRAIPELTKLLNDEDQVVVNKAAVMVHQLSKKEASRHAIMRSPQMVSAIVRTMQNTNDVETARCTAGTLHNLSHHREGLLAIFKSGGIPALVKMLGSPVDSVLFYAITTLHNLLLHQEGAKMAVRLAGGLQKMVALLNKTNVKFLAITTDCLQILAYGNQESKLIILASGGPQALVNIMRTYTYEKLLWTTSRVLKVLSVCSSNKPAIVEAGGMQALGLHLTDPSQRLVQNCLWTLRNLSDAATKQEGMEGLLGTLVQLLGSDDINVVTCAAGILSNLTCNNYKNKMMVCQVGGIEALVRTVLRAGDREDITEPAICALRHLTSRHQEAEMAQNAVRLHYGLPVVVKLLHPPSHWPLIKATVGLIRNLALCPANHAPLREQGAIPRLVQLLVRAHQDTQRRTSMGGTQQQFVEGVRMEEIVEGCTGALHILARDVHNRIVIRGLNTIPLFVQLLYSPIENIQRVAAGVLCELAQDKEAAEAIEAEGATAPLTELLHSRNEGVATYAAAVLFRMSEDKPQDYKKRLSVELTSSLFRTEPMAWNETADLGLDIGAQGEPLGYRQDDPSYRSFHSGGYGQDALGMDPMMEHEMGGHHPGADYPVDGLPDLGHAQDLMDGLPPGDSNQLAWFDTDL"}, "source": "paper PMC9731691", "biological_target": "T1, Ran‐binding protein 3 (RanBP3) (human) (UniProt Q9H6Z4)", "T1 sequence": "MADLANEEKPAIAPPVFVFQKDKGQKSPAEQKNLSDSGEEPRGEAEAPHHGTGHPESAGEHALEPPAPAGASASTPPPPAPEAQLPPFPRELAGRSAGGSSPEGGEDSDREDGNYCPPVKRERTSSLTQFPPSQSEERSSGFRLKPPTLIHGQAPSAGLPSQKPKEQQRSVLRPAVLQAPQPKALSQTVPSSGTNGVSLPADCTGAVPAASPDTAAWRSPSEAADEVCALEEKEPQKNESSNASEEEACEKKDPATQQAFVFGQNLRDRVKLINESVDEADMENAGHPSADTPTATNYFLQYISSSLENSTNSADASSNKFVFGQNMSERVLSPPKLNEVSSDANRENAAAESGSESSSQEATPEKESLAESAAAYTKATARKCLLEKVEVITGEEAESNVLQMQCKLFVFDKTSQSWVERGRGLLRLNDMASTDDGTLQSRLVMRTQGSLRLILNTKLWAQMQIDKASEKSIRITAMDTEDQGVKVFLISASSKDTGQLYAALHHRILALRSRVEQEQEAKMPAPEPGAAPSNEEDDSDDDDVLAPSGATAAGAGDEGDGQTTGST", "experiment": "co-IP; CRC cells cotransfected with β-catenin- and RanBP3-expressing plasmids, with or without NU2058; lysate precleared with IgG and protein A/G Sepharose beads at 4 °C for 1 h; primary antibody overnight at 4 °C, beads 4 h, washed with PBS three times; Western blotting; which protein was precipitated not given", "note": "No constants are given. Whether binding was seen depends on the method and setting. Binding seen in cells or lysates may run through a third protein. Some results given as binding are weak or reduced against the parent protein; the word gives no strength."}
{"substance": "β‐catenin (from UniProt P35222 1-781)", "values": [{"measurement": "binding", "result": "binds"}]}
